Measurements: PubChem BioAssay AID1794845 (National Center for Advancing Translational Sciences (NCATS), 2023)
Hit rate of the full screen: of about 6,900 compounds, fewer than 10 were called active. Calls follow the shape of the dose curve; as a rule, active = well fitted curve in the direction sought with a large enough effect; inconclusive = small, poorly fitted or top-dose-only effect, or another doubt; inactive = no such curve, though single readings can be large or run the other way. Some of the results follow.

Chains of the proteins cited; added tags and fusions are not shown. Lines headed by an entry give the natural chain unless they say otherwise; changes in a name come on top.
UniProt C7C422: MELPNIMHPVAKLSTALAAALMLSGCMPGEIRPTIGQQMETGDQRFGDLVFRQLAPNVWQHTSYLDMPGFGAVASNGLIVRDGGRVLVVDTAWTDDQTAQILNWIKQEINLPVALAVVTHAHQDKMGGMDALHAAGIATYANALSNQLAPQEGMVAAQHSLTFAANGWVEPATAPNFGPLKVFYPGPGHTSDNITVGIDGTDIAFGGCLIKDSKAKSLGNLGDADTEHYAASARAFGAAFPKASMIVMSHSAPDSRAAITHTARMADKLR

Target: Metallo-beta-lactamase type 2 (Klebsiella pneumoniae) (UniProt C7C422)
Assay: qHTS to identify inhibitors of the New Delhi Metallo-beta-lactamase (NDM): primary screen against the NCATS Gemini Collection; also: % of control where 0% means no effect
Details: NDM-1 enzyme, meropenem hydrolysis, absorbance 300 nm; at 38.4 µM (top of the series) unless noted
Procedure, shortened: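 Meropenem hydrolysis (50 uM final) by 2 nM NDM-1 read as 300 nm absorbance after 30 min, following >30 min compound–enzyme preincubation in HEPES pH 7.0 with 1 uM ZnSO4 and 0.01% Tween20.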

Activity % (negative = inhibition), inactive:
C=CCNC(=O)N[C@H]1CCN(C(=O)CC(C)(C)C)[C@@H]1C(=O)N[C@@H](Cc1cccs1)C(N)=O 11.3%
COc1cccc(CN2CC(C(=O)NCc3n[nH]c(=O)[nH]3)CCC2=O)c1 (stereo not drawn) 15.2%
CCc1nc(NC(=O)Cn2nc3c(cc2=O)CCCC3)sc1C 15.8%
CC(=O)NC1(C)CCN(Cc2cnc(-c3cccc(F)c3)s2)CC1 16% [at 57.5 µM]
Cc1nc(N(C)C)ncc1C(=O)N1CCN(c2ccccc2C#N)CC1 4.49%
O=C(Cc1ccccc1)NCc1nnc2n1C(C(=O)O)CC2 (stereo not drawn) 26.1%
NC(=O)[C@H]1C[C@@H](O)[C@H](O)[C@H]2[C@@H]1SC(=Nc1ccc(Cl)cc1)N2Cc1ccc(F)cc1 10.3%
COc1ccc(C(=O)N2CCCC3(CN[S+](=O)([O-])c4ccccc4N3)C2)cc1 (stereo not drawn) 0.251%
C[C@@H]1CN(C(=O)c2ccc(Cn3cnnn3)cc2)C[C@@]1(O)C1CCC1 -9.81%
C[S+](=O)([O-])c1ccc(-c2cc(C(=O)N3CCOCC3)nn3cccc23)cc1 -5.63%
N#Cc1cc2c(=O)n(CCCCN3CCCC3)ccc2[nH]c1=O 22.3%
Cc1noc(-c2ccc(OC3CN(S(=O)(=O)c4c(C)noc4C)C3)cc2)n1 -0.18%
CCN1CCN(CCN2CC3(CCN(C4CCOCC4)CC3)OC2=O)CC1 2.65%
COc1ccc(CC(=O)NC2CCN(C(=O)c3ccc(-c4cccs4)cc3)CC2)cc1 21.6%
O=C(c1ccccc1)N1CCCC2(CC(c3cccc(C(F)(F)F)c3)=NO2)C1 (stereo not drawn) -8.77%
O=C(c1ccc(C2CCCNC2)cc1)N1CCCN(c2ccc(F)cc2)CC1 (stereo not drawn) 12.1%
CN(CCc1nc2ccc(Cl)cc2[nH]1)c1cc(C2CC(O)C2)nc(N)n1 (stereo not drawn) 3.01%
Cc1ccc(N(CC(=O)N[C@H]2C[C@@H]3OCC[C@H]23)S(C)(=O)=O)cc1 -2.04%
Cc1noc(-c2cccn3c(CNC(=O)Cc4cccc(F)c4)nnc23)n1 -0.833%
CS(=O)(=O)c1ccc(CN2CCC(C(O)c3ccccn3)CC2)cc1 (stereo not drawn) 3.72%
O=C(Nc1ccc(Cl)cc1)c1nc2c(o1)CCN(Cc1ccncc1)CC2 22.1% [at 57.5 µM]
Fc1ccc(-c2noc(-c3ncn4c3COC(c3ccccc3Cl)C4)n2)cc1 (stereo not drawn) 41.7%
OC(c1ccccc1)c1nc(Nc2ccc3c(c2)OCO3)n[nH]1 (stereo not drawn) 8.43% [at 57.5 µM]

Part of the list above in order of formula weight, rising.
Activity % (negative = inhibition), inactive:
Cc1noc(-c2cccn3c(CNC(=O)Cc4cccc(F)c4)nnc23)n1 -0.833%
CN(CCc1nc2ccc(Cl)cc2[nH]1)c1cc(C2CC(O)C2)nc(N)n1 (stereo not drawn) 3.01%
Cc1noc(-c2ccc(OC3CN(S(=O)(=O)c4c(C)noc4C)C3)cc2)n1 -0.18%
COc1ccc(C(=O)N2CCCC3(CN[S+](=O)([O-])c4ccccc4N3)C2)cc1 (stereo not drawn) 0.251%
NC(=O)[C@H]1C[C@@H](O)[C@H](O)[C@H]2[C@@H]1SC(=Nc1ccc(Cl)cc1)N2Cc1ccc(F)cc1 10.3%
